Test system: neointimal hyperplasia in rabbit carotid arteries
Experiment: Restenosis after balloon angioplasty with ceramide-coated embolectomy catheter balloon
Assay type: in vivo, New Zealand white rabbits
Details: rabbit carotid artery

CCCCCCCCCCCCC/C=C/[C@@H](O)[C@H](CO)NC(=O)CCCCC [C6-ceramide]
cellular protein content vs sham control and vehicle control arteries: no significant differences

— patent US6682545B1, “System and device for preventing restenosis in body vessels” (The Penn State Research Foundation, priority 1999, dated 2004)
